Results on 1 substance are retold here after paper PMC8141794.

Chains of the proteins cited; added tags and fusions are not shown.
UniProt Q8N6T3: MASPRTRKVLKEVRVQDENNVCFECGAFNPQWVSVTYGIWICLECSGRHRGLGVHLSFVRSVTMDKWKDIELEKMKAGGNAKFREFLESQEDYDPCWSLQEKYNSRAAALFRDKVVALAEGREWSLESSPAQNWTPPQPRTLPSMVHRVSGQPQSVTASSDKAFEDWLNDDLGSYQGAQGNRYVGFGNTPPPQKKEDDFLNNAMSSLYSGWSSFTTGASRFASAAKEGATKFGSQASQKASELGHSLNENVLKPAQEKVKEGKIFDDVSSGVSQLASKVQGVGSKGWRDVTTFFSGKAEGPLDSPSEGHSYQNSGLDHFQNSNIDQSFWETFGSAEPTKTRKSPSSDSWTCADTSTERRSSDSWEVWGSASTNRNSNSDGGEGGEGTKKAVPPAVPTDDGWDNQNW

Residue numbers refer to the chain shown, from its start. Results are given in words; binding and its absence hold for the method and conditions named. Binding seen in cells or lysates may run through a third protein. Some results given as binding are weak or reduced against the parent protein; the word gives no strength. Tags and fused reporters may be left off the sequences shown.

The target of experiment [1] is T1, GST-C-terminus EAAT3-WT (human) (UniProt P43005).
T1 sequence: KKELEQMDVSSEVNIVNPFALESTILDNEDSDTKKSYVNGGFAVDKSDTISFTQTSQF
Description: pull-down; purified GST fusion proteins (30 μg) incubated with lysates (100 μg) of HEK293 cells overexpressing His-ARFGAP1 in 50 mM Tris HCl pH 7.4, 150 mM NaCl, 0.1% Triton X-100, 2 h on ice, then glutathione sepharose 4B 2 h at 4°C; immunoblot with anti-hexahistidine and anti-GST; only the target purified. On the technique in general: A western blot detects proteins with antibodies after separation by electrophoresis.

Experiment [2] concerns the target T2, GST-C-terminus EAAT3-F508A (human) (UniProt P43005).
T2 sequence: T1 sequence with F42A
Described as above.

“Human His6-ARFGAP1 (from UniProt Q8N6T3 1-406)”: the binding result in experiment [1] and in experiment [2] was “binds” in each case.
